According to PubChem BioAssay AID1347076 (National Center for Advancing Translational Sciences (NCATS), 2019):
Among all 400,000 compounds or so, about 13,000 (3.2%) were called active. This list was built around the results that the source calls inconclusive (neither active nor inactive); the mix of calls is not that of the screen. Calls follow the shape of the dose curve; as a rule, active = well fitted cell-killing curve with a large enough effect; inconclusive = small, poorly fitted or top-dose-only effect, or effect the other way; inactive = flat fitted curve, though single readings scatter. Potencies of inconclusive entries are doubtful fits and often do not repeat.

Experiment: qHTS assay for MDR1-selective chemotherapeutics: Primary screen using the drug-selected MDR subline cells KB-V1; also: nearly all actives have a fitted effect of over 60% in size
Conditions: KB-V1 MDR cells viability, CellTiter-Glo, 72 h; series mostly up to 46.1 µM
Text: A prime difficulty in effectively treating cancer is the development of cellular resistance to multiple structurally unrelated anticancer drugs, a phenomenon known as multidrug resistance (MDR). […] Numerous strategies to overcome P-gp-mediated MDR have been explored, including the design of drugs that evade recognition and efflux, and development of inhibitors to block efflux and restore drug accumulation. […] An alternative approach is to exploit resistance by identifying drugs that target MDR cells over the non-resistant parental cells from which they were selected. […] The development of MDR1-selective agents represents a new strategy for resolving multidrug resistance, as it remains a long-standing clinical challenge for cancer chemotherapy.
Our goal is to identify compounds that selectively kill P-gp-expressing MDR cells. We will identify MDR1-selective compounds by comparing toxicity of compounds in the screening library against parental, drug-naive (KB-3-1) adenocarcinoma cells as well as their drug-selected MDR sub-line (KB-V1). The differential toxicity of compounds against these two cell lines will be used to identify MDR1-selective compounds, whose cytotoxicity is potentiated, rather than diminished, by P-gp expression. This assay will be utilized to conduct a quantitative high-throughput screen (qHTS) in collaboration with the NIH Chemical Genomics Center to identify selective agents, and probe hits arising from the screen will be validated using secondary assays and characterized through a well-established follow-up research program. This screen was run against the entire NCGC library collection of about 400,000 compounds.
NIH Molecular Libraries Probe Production Network [MLPCN]
NIH Chemical Genomics Center [NCGC]
PI: Michael Gottesman, National Cancer Institute, NIH
Briefly, 5 microL of media containing either KB-V1 cells (columns 1-2, 4-48) are dispensed into Greiner white, treated solid-bottom 1536-well assay plates (media-only control is added to column 3). Compounds are then transferred via Kalypsys pin tool equipped with 1536-pin array (10 nL slotted pins, V&P Scientific, San Diego, CA). Following addition of compound, the plates are incubated at 37 degrees C for 72 hours. CellTiter-Glo (2.5 µL/well) is then added, and the plates are read in a ViewLux reader (Perkin-Elmer, clear luminescence filter, 1 second exposure, 1x binning) following a 10 minute incubation. All cells are dispensed in DMEM phenol-red free media containing 10% FBS.
Library plates were screened starting from the lowest and proceeding to the highest concentration. Vehicle-only plates, with DMSO being pin-transferred to columns 5-48, will be inserted uniformly at the beginning and the end of each library in order to monitor and record any shifts in the background, which can be affected by reagent dispensers or loss in enzyme activity over time. Screening data will be corrected, normalized, and concentration-effect relationships will be derived by using publicly-available NCGC, NCATS curve fitting algorithms (http://ncgc.nih.gov/pub/openhts).
Potency is read from the fitted curve at half-maximal effect.

| Compound | Potency |
| --- | --- |
| CN(C)C(=O)Oc1ccc(C(=O)c2ccccc2)cc1 | inactive |
| COc1ccc(C(CNC(=O)Cc2ccc(Cl)c(Cl)c2)N(C)C)cc1 (stereo unspecified) | inconclusive: 14.6 µM [cytotoxic, partial curve] |
| COc1ccccc1CN1CCCC(C(=O)c2ccccc2SC)C1 (stereo unspecified) | inconclusive: 2.31 µM [cytotoxic, full curve] |
| CN1CCN(C(=O)COc2ccc(N(C)S(=O)(=O)c3ccc(F)cc3)cc2)CC1 | inconclusive: 18.4 µM [cytotoxic, partial curve] |
| Cc1ccc(-c2cc(-c3ccc(C)cc3)[n+](-c3ccc(C(=O)O)cc3)c(-c3ccc(C)cc3)c2)cc1 | inactive |
| CNC(=O)c1cccn(Cc2ccc(C(F)(F)F)cc2)c1=O | inconclusive: 23.1 µM [cytotoxic, single point] |
| CC1([N+](=O)[O-])COP(=O)(Nc2cccc(Cl)c2)OC1 (stereo unspecified) | inactive |
| CCC(=NCc1ccc2c(c1)OCO2)c1c(O)n(C2CCCCC2)c(=O)[nH]c1=O | inconclusive: 20.6 µM [cytotoxic, single point] |
| COc1cccc(-n2c(-c3ccoc3)nc3ccccc3c2=O)c1 | active: 14.6 µM |
| Brc1ccc2[nH]cc(C=NN3CCCCCC3)c2c1 | inconclusive: 29.1 µM [cytotoxic, single point] |
| COC(=O)C1=C(c2ccccc2OCc2ccccc2)C[C@@H]2CC[C@H]1N2C(=O)NCCOc1ccccc1 | inconclusive: 29.1 µM [cytotoxic, single point] |
| O=C(c1ccc(C(F)(F)F)cc1)C1CCCN(C2CCSCC2)C1 (stereo unspecified) | inconclusive: 18.4 µM [cytotoxic, single point] |
| COC(=O)C1=C(c2cccc(OC)c2OC)C[C@@H]2CC[C@H]1N2C(=O)NC1CCCCC1 | inactive |
| O=C(O)Cn1cc(/C=C2\C(=O)NC(=O)N(c3ccc(Cl)cc3)C2=O)c2ccccc21 | inconclusive: 14.6 µM [rising, partial curve, poor fit] |
| CN(CC1COc2ccccc2O1)c1nc(-c2cccnc2)nc2ccccc12 (stereo unspecified) | inconclusive: 29.1 µM [cytotoxic, partial curve, poor fit] |
| COc1cc(CNCCc2ccc3c(c2)OCO3)cc(OC)c1OC | inconclusive: 16.4 µM [cytotoxic, partial curve, poor fit] |
| COc1cc(-n2c(=S)[nH]c3ccccc3c2=O)c(Cl)cc1Cl | inconclusive: 29.1 µM [cytotoxic, single point] |
| CNC(=O)Oc1ccc2ncccc2c1 | inconclusive: 13 µM [rising, partial curve, poor fit] |
| COC(=O)C1=C(c2ccc(S(C)(=O)=O)cc2)C[C@@H]2CC[C@H]1N2C(=O)NCc1ccco1 | inconclusive: 18.4 µM [rising, partial curve, poor fit] |
| N#Cc1cc2c(nc1SCC(=O)Nc1cc(Cl)cc(Cl)c1)C1CCN2CC1 | active: 4.61 µM |
| CC(C)NCC(O)c1ccc(C2CCCC2)cc1 (stereo unspecified) | active: 23.1 µM |
| CN(Cc1ccccc1)C1CCCN(C(=O)COc2ccccc2Cl)C1 (stereo unspecified) | inconclusive: 5.8 µM [cytotoxic, partial curve] |
| S=P(NCCNP(=S)(N1CC1)N1CC1)(N1CC1)N1CC1 | inactive |
| CCOC(=O)c1c(NC(=O)C(c2ccccc2)c2ccccc2)sc2c1C1CCN2CC1 | active: 23.1 µM |

| Compound | Potency |
| --- | --- |
| CC(C)Cc1nc(N2CCNCC2)c(C#N)c2c1CCC2 | inconclusive: 8.2 µM [cytotoxic, partial curve, poor fit] |
| COc1cc2c(c(OC)c1OC)-c1ccc(C(=O)O)cc1[C@@H](NC(C)=O)CC2 | inactive |
| Cc1ccc(C(=O)N/C(=C\Cl)P(=O)(c2ccccc2)c2ccccc2)cc1 | inconclusive: 5.17 µM [cytotoxic, full curve] |
| COC(=O)C1=C(c2ccc(OC(F)(F)F)cc2)C[C@@H]2CC[C@H]1N2C(=O)NCCOc1ccccc1 | inconclusive: 29.1 µM [cytotoxic, single point] |
| COC(=O)C1=C(c2ccc(OCc3ccccc3)cc2)C[C@@H]2CC[C@H]1N2C(=O)NCc1cccc(F)c1 | active: 7.31 µM |
| CCCCCCn1c(=O)c(C(=O)Nc2nc(CC(=O)OCC)cs2)c(O)c2ccccc21 | active: 2.06 µM |
| N#CC1c2ccccc2-n2nncc2CN1Cc1cc(Cl)cc(Cl)c1 (stereo unspecified) | inconclusive: 18.4 µM [cytotoxic, single point] |
| Cn1c(O)c(C(=O)c2ccccc2)c(=O)n(C)c1=O | inconclusive: 29.1 µM [rising, single point] |
| COc1ccc(CN2CCN(C(=O)COc3ccccc3)CC2)c(OC)c1 | inconclusive: 23.1 µM [cytotoxic, single point] |
| CNC(=O)Nc1ccc(C(=O)N/N=C\C23CC[C@@H](O)CC2(O)CC[C@@H]2[C@@H]3CCC3(C)C(C4=CC(=O)OC4)CCC23O)cc1 (stereo partly specified) | inactive |
| CC(=NCCCO)c1c(O)n(Cc2ccccc2)c(=O)[nH]c1=O | inconclusive: 6.51 µM [rising, partial curve] |
| CCCC/C(C)=C/[C@@H](NP(=O)(c1ccccc1)c1ccccc1)c1ccccc1 | inconclusive: 29.1 µM [cytotoxic, partial curve, poor fit] |
| Cc1ccc(OCC(=O)N2CCN(Cc3ccc([N+](=O)[O-])cc3)CC2)cc1 | inconclusive: 5.17 µM [cytotoxic, partial curve] |
| Cc1ccc2nc(-c3ccncc3)cc(C(=O)N3CCC4(CC3)OCCO4)c2c1 | inactive |
| Nc1c(C(=O)NCCN2CCOCC2)c2nc3ccccc3nc2n1Cc1ccco1 | inactive |
| CCCCn1c(=O)c(C(=O)NC(C)c2ccccc2)c(O)c2ccccc21 (stereo unspecified) | inconclusive: 29.1 µM [cytotoxic, single point] |
| CC1(C(O)(C#CCN2CCCCC2)c2ccccc2)CCCC1 (stereo unspecified) | inactive |
| COc1ccccc1N1CCN(Cc2cccc(OC)c2O)CC1 | inconclusive: 32.6 µM [cytotoxic, single point] |
| COCC(=O)N1Cc2ccccc2-n2nncc2C1 | inactive |
| O=c1[nH]c(=O)n(-c2ccc(F)cc2)c(O)c1C=Nc1ccccc1N1CCCC1 | inconclusive: 29.1 µM [cytotoxic, single point] |
| O=c1[nH]c(=S)n(C2CC2)c(O)c1/C=N/Nc1ccccc1 | inactive |
| CC12CCC(O)CC1CCC1C2CCC2(C)C(C3=CC(=O)OC3)C(O)CC12O (stereo unspecified) | active: 4.11 µM |
| C[N+](C)(C)CCc1ccc(O)cc1 | inconclusive: 4.61 µM [cytotoxic, full curve, poor fit] |
| CC1COC2N=C(N[N+](=O)[O-])NC2O1 (stereo unspecified) | inconclusive: 9.2 µM [rising, partial curve, poor fit] |

| Compound | Potency |
| --- | --- |
| C[C@]12CCC3C(CC[C@H]4C[C@@H](O)CC[C@]34C)C1CC[C@@H]2O (stereo partly specified) | inactive |
| CCOC(=O)c1c(C)n(CC(O)CN2CCOCC2)c2cc(Br)c(OC)cc12 (stereo unspecified) | inactive |
| C[C@H](NC(=O)N1C[C@H]2C[C@@H](C1)c1cccc(=O)n1C2)C(=O)Nc1cccc(F)c1 | inactive |
| COc1cc([C@@H]2c3cc4c(cc3[C@@H](OC)[C@H]3COC(=O)[C@H]23)OCO4)cc(OC)c1O | inconclusive: 2.59 µM [cytotoxic, partial curve, poor fit] |
| CC(=O)CC(c1ccccc1[N+](=O)[O-])c1c(O)c2ccccc2oc1=O (stereo unspecified) | inconclusive: 9.2 µM [rising, partial curve, poor fit] |
| CC1=[N+]([O-])C2(N)CCc3nonc3C2(O)C1 (stereo unspecified) | inactive |
| O=C(Cc1ccccc1)N1CCN(CC2CC3C=CC2C3)CC1 (stereo unspecified) | inconclusive: 16.4 µM [cytotoxic, partial curve, poor fit] |
| CN1CC(C(=O)c2ccc([N+](=O)[O-])cc2)C(c2ccc(Cl)cc2)C1 (stereo unspecified) | inactive |
| CCOC(=O)[C@]12Cc3cc4ccccc4cc3[C@H]1N(Cc1ccccc1)C(=O)c1cc(OC)ccc12 | active: 16.4 µM |
| O=C1NCN(c2ccccc2)C12CCN(C(c1cccs1)c1nnnn1Cc1ccccc1)CC2 (stereo unspecified) | inconclusive: 23.1 µM [cytotoxic, single point] |
| COc1ccc(CC(C)NCCC(c2ccccc2)c2ccccc2)cc1 (stereo unspecified) | inconclusive: 32.6 µM [cytotoxic, single point] |
| Cc1ccc(C2CC3CCC(C2)N3Cc2ccccc2F)cc1 (stereo unspecified) | inconclusive: 23.1 µM [cytotoxic, partial curve] |
| O=C(CCN1CC1)OCCOC(=O)CCN1CC1 | inactive |
| OC(Cn1c2ccccc2c2ccccc21)C[n+]1cccc2ccccc21 (stereo unspecified) | inactive |
| CCOc1cc(C(=O)N2CCC3(CC2)OCCO3)cc(OCC)c1OCC | inconclusive: 16.4 µM [cytotoxic, partial curve, poor fit] |
| Cc1ccc2c(c1)[C@@H]1CN(C)CC[C@@H]1N2C(=O)Nc1cccc(C(F)(F)F)c1 | inconclusive: 35.5 µM [cytotoxic, single point] |
| C[C@]12CCC(=O)C[C@@H]1CC[C@@H]1[C@@H]2CC[C@]2(C)[C@@H](O)CC[C@@H]12 | active: 16.4 µM |
| CC1(C)C[C@H]2C=C(C=O)[C@]3(C=O)C[C@]3(C)[C@H]2C1 | inactive |
| COc1cccc(CNC2CN3CCC2CC3)c1OC (stereo unspecified) | inactive |
| CCCCNC(C)Cc1ccccc1 (stereo unspecified) | inactive |
| CCCC(=O)Nc1cc(C(=O)N2CCC3(CC2)OCCO3)ccc1S(=O)(=O)c1ccc(C)cc1 | active: 10.3 µM |
| CCN1C(=O)C(=C2C=C(C)N(Cc3ccco3)C(C)=C2)C(=O)N(CC)C1=S | inactive |
| O=C(O)c1cccc(NC(=O)N2C[C@H]3C[C@@H](C2)c2cccc(=O)n2C3)c1 | inactive |

3 entries from above, reformatted.
Compound | Potency
O=C(Cc1ccccc1)N1CCN(CC2CC3C=CC2C3)CC1 (stereo unspecified) | inconclusive: 16.4 µM [cytotoxic, partial curve, poor fit]
CN1CC(C(=O)c2ccc([N+](=O)[O-])cc2)C(c2ccc(Cl)cc2)C1 (stereo unspecified) | inactive
CCOC(=O)[C@]12Cc3cc4ccccc4cc3[C@H]1N(Cc1ccccc1)C(=O)c1cc(OC)ccc12 | active: 16.4 µM
